For 1 compound, growth results are on record in the supplement of paper PMC9262897, “Low-cost anti-mycobacterial drug discovery using engineered E. coli” (Nature Communications, 2022).

This test deals with E. coli TESEC Mtb Alr. Briefly: growth (OD600 after 10 h); higher = more growth (less inhibition). Conditions: compound 0.1 mM. The method, then:
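TESEC Mtb Alr E. coli, or the Alr+ wild-type control, in 384-well plates with Prestwick library compounds at 0.1 mM and 1% DMSO, across arabinose induction levels of 1E3 to 1E7 nM. Growth is read as OD600 after 10 h at 37 °C in triplicate biological replicates.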

Each structure is given as a SMILES string. Where a name gives a salt, the structure may show the parent alone. ± gives the standard deviation of the averaged measurements. Shown are results outside the selection of lowest values, which stands elsewhere.

With `CN1[C@@H]2CC[C@H]1C[C@@H](OC(=O)C(O)c1ccccc1)C2` (mixture of isomers) [Homatropine hydrobromide (R,S)], the growth (arabinose 1000 nM, raw OD600 reference: median of DMSO wells 0.294, cell-free background 0.041) was determined as 0.304 ± 0.004; the growth (arabinose 10000 nM, raw OD600 reference: median of DMSO wells 0.264, cell-free background 0.041) was found to be 0.249 ± 0.0075; the growth (arabinose 100000 nM, raw OD600 reference: median of DMSO wells 0.201, cell-free background 0.041) was 0.213 ± 0.013; the growth (arabinose 1000000 nM, raw OD600 reference: median of DMSO wells 0.193, cell-free background 0.041) was 0.184 ± 0.018; the growth (arabinose 10000000 nM, raw OD600 reference: median of DMSO wells 0.146, cell-free background 0.041) is 0.153 ± 0.0044.
